The subject of test [1] is HCC 202 cells. Kind of test: WST-8 growth inhibition of cultured breast cancer cells. In kind it is cell-based. To be noted: Homo sapiens, HCC202, Tamoxifen, 0.5% FCS, 72 hours post treatment. The method, then:
(§1) In another example, the expression of thymidylate synthase (TS) was correlated with the response of breast cancer cells to the chemotherapeutic drug 5-fluorouracil (5-FU). TS is a key enzyme in DNA biosynthesis and has been postulated to play a major role in predicting the response to 5-FU based chemotherapy. Experiments were conducted to examine this relationship. […] Doses ranged from 5-300 μg/ml.

Test [2] deals with HCC 2218 cells. The description is as above. In kind it is cell-based. The settings on record: Homo sapiens, Tamoxifen, HCC2218 cells, 0.5% FCS, 72 hours post treatment. On the procedure:
as §1

For test [3], the system named is HCC 38 cells. The description is as above. The format is cell-based. The settings on record: Homo sapiens, Tamoxifen, HCC38 cells, 0.5% FCS, 72 hours post treatment. On the procedure:
as §1

Test [4] concerns MCF-7 cells. Described as above. In kind it is cell-based. The settings on record: Homo sapiens, MCF7, Tamoxifen, 0.5% FCS, 72 hours post treatment. On the procedure:
as §1

Test [5] deals with SKBR-3 cells. Described as above. To be noted: Homo sapiens, SK-BR-3, Tamoxifen, SKBR3 cells, 0.5% FCS, 72 hours post treatment. The format is cell-based. The method, then:
as §1

In test [6] the test system is T47D cells. The test is described as above. The format is cell-based. The settings on record: Homo sapiens, Tamoxifen, 0.5% FCS, 72 hours post treatment. The method, then:
as §1

For test [7], the system named is MDA-MB231 cells. Put plainly: cells. To be noted: Homo sapiens, MDA-MB-231, 72 h.

In brackets after ≈: the same amount, converted by molar mass. Like-named read-outs stand apart in the source and are kept apart here.

One molecule from patent publication US20070071762A1, “COMPREHENSIVE DIAGNOSTIC TESTING PROCEDURES FOR PERSONALIZED ANTICANCER CHEMOTHERAPY (PAC)” (CCC Diagnostics, LLC, priority 2005, published 2007) can be followed below.

What is called IC50 is the concentration that inhibits the measured activity by half.

For the molecule `CC/C(=C(\c1ccccc1)c1ccc(OCCN(C)C)cc1)c1ccccc1` [Tamoxifen, tamoxifen], the IC50 in test [1] (read-out: IC50-1), in test [1] (read-out: IC50-2), in test [2] (read-out: IC50-1), in test [2] (read-out: IC50-2), in test [3] (read-out: IC50-1) and in test [3] (read-out: IC50-2) was above 50 µg/mL each time. Besides, the IC50 in test [4] (read-out: IC50-1) was 9.8 µg/mL (≈ 26.4 µM); in test [4] (read-out: IC50-2), 13 µg/mL (≈ 35 µM); in test [5] (read-out: IC50-1), 41.6 µg/mL (≈ 112 µM); in test [5] (read-out: IC50-2) it was 35 µg/mL (≈ 94.2 µM); in test [6] (read-out: IC50-1) it was 28.3 µg/mL (≈ 76.2 µM); in test [6] (read-out: IC50-2), 21.8 µg/mL (≈ 58.7 µM). Moreover, the half-inhibitory concentration (IC50) in test [7] (read-out: IC50-1) and in test [7] (read-out: IC50-2) was 42.5 µg/mL (≈ 114 µM) throughout.
